Assay results: article PMC8581416
These are yes or no findings as the source states them, for the method shown. In cells and extracts the contact can be indirect. Some results given as binding are weak or reduced against the parent protein; the word gives no strength.

Protein sequences, listed by entry. Tags and fused reporters are not part of them.
UniProt Q8VEK3: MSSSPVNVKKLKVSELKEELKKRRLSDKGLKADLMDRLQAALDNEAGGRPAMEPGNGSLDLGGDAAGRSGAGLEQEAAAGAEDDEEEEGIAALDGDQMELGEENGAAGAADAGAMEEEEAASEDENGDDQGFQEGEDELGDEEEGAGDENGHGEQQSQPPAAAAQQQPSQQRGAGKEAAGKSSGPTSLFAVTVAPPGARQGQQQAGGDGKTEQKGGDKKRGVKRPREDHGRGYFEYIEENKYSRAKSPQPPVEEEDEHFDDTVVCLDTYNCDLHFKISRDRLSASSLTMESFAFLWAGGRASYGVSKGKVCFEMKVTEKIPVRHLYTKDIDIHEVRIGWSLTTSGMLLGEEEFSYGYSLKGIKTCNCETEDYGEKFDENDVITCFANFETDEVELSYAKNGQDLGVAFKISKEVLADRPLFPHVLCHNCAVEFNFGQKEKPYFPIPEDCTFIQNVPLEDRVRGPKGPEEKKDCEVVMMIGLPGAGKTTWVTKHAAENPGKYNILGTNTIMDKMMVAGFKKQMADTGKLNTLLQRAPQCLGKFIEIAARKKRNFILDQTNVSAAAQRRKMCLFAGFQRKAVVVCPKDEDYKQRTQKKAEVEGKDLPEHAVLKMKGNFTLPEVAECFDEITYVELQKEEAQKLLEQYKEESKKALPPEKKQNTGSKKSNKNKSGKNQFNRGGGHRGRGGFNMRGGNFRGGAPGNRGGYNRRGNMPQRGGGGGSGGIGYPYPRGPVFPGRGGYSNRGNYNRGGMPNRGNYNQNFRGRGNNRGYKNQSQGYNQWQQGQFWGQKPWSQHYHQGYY
UniProt P22561: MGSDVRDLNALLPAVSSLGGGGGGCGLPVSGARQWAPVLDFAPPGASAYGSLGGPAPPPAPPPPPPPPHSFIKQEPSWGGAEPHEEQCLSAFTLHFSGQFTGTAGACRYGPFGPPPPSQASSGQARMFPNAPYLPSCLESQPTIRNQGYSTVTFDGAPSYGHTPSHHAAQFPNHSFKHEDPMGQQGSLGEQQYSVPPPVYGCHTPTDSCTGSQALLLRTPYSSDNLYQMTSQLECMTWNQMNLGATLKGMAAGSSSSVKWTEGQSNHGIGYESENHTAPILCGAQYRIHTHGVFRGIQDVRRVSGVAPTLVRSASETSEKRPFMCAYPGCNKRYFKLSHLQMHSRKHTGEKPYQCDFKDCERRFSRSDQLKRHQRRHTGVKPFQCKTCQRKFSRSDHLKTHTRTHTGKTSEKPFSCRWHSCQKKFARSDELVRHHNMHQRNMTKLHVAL

Assays:
[1] = biological target: hnRNPU (mouse (endogenous in testis)) (UniProt Q8VEK3); assay: co-IP; lysates of mouse testes at postnatal day 3 immunoprecipitated with anti-hnRNPU and anti-WT1 antibodies, respectively; western blot with the reciprocal antibody; lysis buffer 20 mM HEPES, 150 mM NaCl, 2 mM magnesium acetate, 0.2% NP-40, 1 mM DTT, pH 7.3; 4 °C overnight
[2] = biological target: hnRNPU (mouse (endogenous in testis)) (UniProt Q8VEK3); assay: co-IP; immunoprecipitation of hnRNPU in isolated mouse Sertoli cells at P3, western blot of Pol II, hnRNPU, SOX9, WT1 and SOX8; called RNA-independent
[3] = biological target: Wilms' tumor 1 (WT1) (mouse (endogenous in testis)) (UniProt P22561); assay: co-IP; lysates of mouse testes at postnatal day 3 immunoprecipitated with anti-hnRNPU and anti-WT1 antibodies, respectively; western blot with the reciprocal antibody; lysis buffer 20 mM HEPES, 150 mM NaCl, 2 mM magnesium acetate, 0.2% NP-40, 1 mM DTT, pH 7.3; 4 °C overnight

Row | Substance | binding [1] | binding [2] | binding [3]
1 | Wilms' tumor 1 (WT1) (from UniProt P22561 1-449) | binds | binds | –
2 | hnRNPU (from UniProt Q8VEK3 1-800) | – | – | binds
